From PubChem BioAssay AID1794845 (National Center for Advancing Translational Sciences (NCATS), 2023)
Screen size: about 6,900 compounds; fewer than 10 were called active. The call rests on the fitted dose curve; in most records, active means well fitted curve in the direction sought with a large enough effect; inconclusive means small, poorly fitted or top-dose-only effect, or another doubt; inactive means no such curve, though single readings can be large or run the other way. This is one part of the list.

The chains behind the UniProt entries cited, without tags or fusion partners. Where a name states a change or a piece, a line headed by the entry shows the natural chain unless it says otherwise.
UniProt C7C422: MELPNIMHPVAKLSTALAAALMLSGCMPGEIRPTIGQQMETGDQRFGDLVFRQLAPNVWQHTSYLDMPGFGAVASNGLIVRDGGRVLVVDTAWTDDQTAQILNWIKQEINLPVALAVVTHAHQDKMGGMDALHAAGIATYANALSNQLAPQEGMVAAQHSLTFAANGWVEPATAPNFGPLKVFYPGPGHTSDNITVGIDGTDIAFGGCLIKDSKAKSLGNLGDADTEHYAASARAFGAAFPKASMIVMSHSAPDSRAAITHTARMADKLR

These compounds were tested against Metallo-beta-lactamase type 2 (Klebsiella pneumoniae) (UniProt C7C422) (assay: qHTS to identify inhibitors of the New Delhi Metallo-beta-lactamase (NDM): primary screen against the NCATS Gemini Collection). Conditions: NDM-1 enzyme, meropenem hydrolysis, absorbance 300 nm; at 38.4 µM (top of the series) unless noted.
In short: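 NDM-1 at 2 nM final in 50 mM HEPES pH 7.0, 1 uM ZnSO4, 0.01% Tween20, preincubated >30 min with compound. Meropenem 50 uM final added; absorbance at 300 nm after 30 min.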
Further: % of control where 0% means no effect.

Activity % (negative = inhibition), inactive:
CN(C)CCN(C)[C@H]1[C@@H]2OC[C@@H](O2)[C@@H](NC(=O)Nc2cccc(C#N)c2)[C@@H]1O -1.04% [at 57.5 µM]
CCc1nnc([C@@H]2CC(F)(F)CN2C(=O)c2ocnc2C)o1 7.8%
O=C(CCc1ccccc1)NCC1CCCCC(=O)N1 (centres undefined) 21.4%
Cc1cc(C)n(CC(=O)N2CCC3(CC2)CC(CN2CCOCC2)N(C)C3)n1 (centres undefined) -1.29%
CO[C@H](C)[C@H](N)C(=O)N1CCC(c2cc(Cc3ccccc3)[nH]n2)CC1 8.25%
CC1=NOC2(CCN(Cc3ccncc3)CC2)C1 -1.02% [at 57.5 µM]
COc1ccccc1C(=O)N1CCC(C(=O)N2CCC(N3Cc4ccccc4C3=O)CC2)CC1 15.7%
Cc1ccc(S(=O)(=O)N2CCCCCC2c2nnc(C)o2)c(C)c1 (centres undefined) 8.31%
COc1ccc(C(=O)NC2CCN(c3nc4ncccc4o3)CC2)cc1 6.51%
CN(Cc1ccc(F)cc1)S(=O)(=O)c1cccs1 0.177% [at 57.5 µM]
Cc1ccccc1C(=O)N1CCC2(CC1)CC(c1cccc(C(F)(F)F)c1)=NO2 51.9%
CCCCS(=O)(=O)NC1CCc2nn(CC3CC3)c(=O)n2CC1 (centres undefined) 0.295%
CC(O)c1cc2n(n1)CCCN(c1ncnc3ccsc13)C2 (centres undefined) 54.7%
Cc1ccc(CN2CC[C@H](c3nnc(-c4ccco4)o3)C2)o1 13.1% [at 57.5 µM]
CC(C)N1CCN(C(=O)CC2=C3CCCCC3NC2=O)CC1 (centres undefined) 3.89%
CCCNC(=O)N1CCCCC1c1n[nH]c(C)n1 (centres undefined) 9.05%
COC(=O)c1cc2n(n1)CCCN(C(=O)COc1ccc(C)c(C)c1)C2 -0.546%
NC(=O)c1cccc(CC2CCN(C(=O)c3ccnc(-n4cnnc4)c3)C2)c1 (centres undefined) 1.2%
COCCn1c(=O)c2c(n1Cc1ccccc1)CN(C(=O)c1cc3ccccc3[nH]1)CC2 13.5% [at 57.5 µM]
CC(C)C1=NOC2(CCN(C(=O)c3ccccc3F)CC2)C1 -0.0545% [at 57.5 µM]
CCc1cc(=O)n(CC(=O)Nc2ccccc2OC)c(N2CCOCC2)n1 10.1%
CC(C)N1C[C@@H](C(=O)O)C[C@H](C(=O)Nc2ccc(F)cc2)C1 -3.69%
Cn1ccnc1CN1C(=O)CO[C@H]2CN(C3CCCCC3)C[C@H]21 -9.79% [at 57.5 µM]
CCc1nc(-c2ccc(OC3CCN(S(=O)(=O)Cc4ccccc4)C3)cc2)no1 (centres undefined) 1.08%
CC(=O)N1CCCN(c2ncnc3c2CN(C2CCCCC2)C(=O)CN3C)CC1 0.617%
NS(=O)(=O)c1ccc(-n2nc(C3CCOC3)nc2C2CCC2)cc1 (centres undefined) -1.95%
COC(=O)c1ccc(NCC2=CC(C)(C)COc3ccc(OC)cc32)cc1 20.8%
CN1CCN(C(=O)c2cncc(N[C@H]3C[C@@H]4OCC[C@H]34)n2)CC1 3.03%
COc1ccccc1N1CCCc2ncc(C(=O)N3CCN(C(C)=O)CC3)cc21 13.8% [at 57.5 µM]
COc1ccccc1N1CCN([C@@H]2[C@H](O)[C@H](CO)O[C@@H]2CN(Cc2ccc(F)cc2)Cc2ccc(F)cc2)CC1 21.2%
CN(Cc1ccc(F)cc1)C(=O)c1cccc(Cl)c1 12.3% [at 57.5 µM]
CN1C[C@@H]2CC[C@H](CC1=O)N2C(=O)c1cnn2cc(CCO)cnc12 27%
COc1ccccc1C(C)N(C)C(=O)c1cccc(CCC(C)(C)O)c1 (centres undefined) -11.8%
O=C(NCCN1CCCC1)c1c(OCC2CC2)cc(=O)n2c1CCOCC2 1.9%
COc1ccc(CCN2Cc3cc(NC(=O)Cc4cccs4)ccc3OCC2=O)cc1 0.749%
Cc1cc(CNC(=O)[C@@H]2CCC[C@@H](NC(=O)C3CCOCC3)CN(C)C(=O)C2)no1 76.9% [at 57.5 µM]
O=c1c2nc(Nc3ccc(C(F)(F)F)cc3)ccc2ncn1Cc1ccccn1 16.4% [at 57.5 µM]
COC(=O)[C@H]1CCCN1C(=O)[C@@H]1C[C@H](NC(=O)Nc2ccc(F)cc2F)CN1C(=O)CSC -2.79%
O=C1Nc2ccccc2C12CN([S+](=O)([O-])c1ccccc1)C2 0.414%
COc1ccc(C[C@H](NC(=O)[C@@H]2C[C@H](NC(=O)Nc3ccc(F)cc3F)CN2C(=O)CC(C)(C)C)C(N)=O)cc1 -3.76%
CN(Cc1cnn(C)c1)C(=O)c1csc2nc(-c3cccc(C(F)(F)F)c3)cn12 0.253%
CCC(=O)NCC1Cn2cccc2C(=O)N1Cc1ccccc1 (centres undefined) -5.65%
Cc1cc(C)c(S(=O)(=O)NCCn2c(C)cnc2C2CCC2)cc1C -0.853%
COc1ccc(C(=O)N2CCCCCNC(=O)[C@@H]3CCC[C@@H]32)cn1 2.51%
O=C(Cc1cccc(C(F)(F)F)c1)N[C@H]1CCOC[C@H]1C1CCOCC1 9.72%
COc1ccc(F)c(-c2nc(CN(C)CC3(CO)CC3)c(C)o2)c1 15.7%
OC[C@H]1CCN(c2ccnc3c(C(F)(F)F)cccc23)C[C@H]1O 12.7%
CN(C)[C@@H]1CN(C(=O)c2cc3ccccc3[nH]2)CC[C@@H]1CO 20.1%
CN(C/C=C/c1ccccc1)C(=O)C1CCC(=O)N(Cc2cccc(F)c2)C1 (centres undefined) 38.1%
COc1ccc(-c2cn(C)c(=O)n3cc(CN4CCNC(=O)C4)nc23)cn1 -6.58% [at 57.5 µM]
COCCC1(NC(=O)c2ccccc2)CCN(Cc2ccc(F)cc2F)CC1 1.52%
Cc1cc(C)n(CCC(=O)N2CCC(Cc3noc(C4CC4)n3)C2)n1 (centres undefined) -2.04%
O=C(C1CCCC1)N1CCC(n2cnnc2C2CC2)CC1 -1.2%
COc1nccc(N2CCC(CC(=O)N3CCN(C(C)=O)CC3)CC2)n1 6.15%
O=C(O)CCC1CCCN(S(=O)(=O)c2ccc(F)cc2)C1 (centres undefined) 1.23%
CC(C)N1C[C@H](O)C[C@H]1c1nnc2n1CCN(C(=O)c1ccco1)CC2 8.27%
COc1cccc(CN2CC(Oc3ccccc3C(=O)NC3CC3)C2)c1 47%
O=C(CN1CCOCC1)NC1CCc2nnc(C3CC3)n2CC1 (centres undefined) -2.23%
O=C(COc1cccc(-c2nnc3n2CCCC3)c1)Nc1ccc(Cl)cc1F 8.11%
CCCC1(C(=O)O)CCCN(S(=O)(=O)c2ccsc2C(=O)O)C1 (centres undefined) -4.63%
CN1CCCC2(CCN(C(=O)CCc3ccc(Cl)cc3)C2)C1=O (centres undefined) 3.42%
O=C(COc1ccc(Cl)cc1)N1CCc2nn(CC3CC3)c(=O)n2CC1 2.97%
COc1ncccc1-c1csc(CN2CCCC(C)(NC(C)=O)C2)c1 (centres undefined) 9.37% [at 57.5 µM]
Cc1nn(-c2ccccc2)c2c1C(C)N(C1CCN([S+](=O)([O-])c3ccccc3)CC1)C2=O (centres undefined) 11.5%
CC(C)NC(=O)C[C@@H]1O[C@H](CNC(=O)C2CC2)[C@@H](O)[C@H]1O 10.6% [at 57.5 µM]
Oc1ccccc1CN1CC(CNc2cccnc2)C2(C1)CN(c1ccccc1)C2 (centres undefined) 28.9% [at 57.5 µM]
COc1ccccc1OCCNC(=O)C1(C)CCCCC(=O)N1 (centres undefined) -0.782%
COc1ccc(-c2cc(C[C@H]3CNCC[C@H]3CC(=O)N3CCN(C)CC3)no2)cc1 27.9% [at 57.5 µM]
COc1ccc(CN[C@H]2CC(C)(C)[C@@H]3C[C@@](C)(O)CC[C@]23CCC(=O)NCc2ccco2)cc1 0.334%
OCCc1cc(CC2(NCc3ccc(CO)o3)COC2)no1 -0.284% [at 57.5 µM]
COc1cc(NC(=O)O[C@@H]2CC[C@]3(C)C(CC[C@@H](O)[C@H]3CC(=O)N3CC[C@H](NC(C)=O)C3)[C@]2(C)CO)cc(OC)c1 (some centres undefined) 3.07%
O=C(Cn1nc2c(cc1=O)CCCC2)N1CCOCC1 8.36%
O=C(Nc1cccnc1)c1cnc2c(c1)N(Cc1ccccc1)CCC2 55.2% [at 57.5 µM]
COc1ccc2c(c1)CN(C1CCN(C)CC1)CC[C@H]1COC(=O)N21 19.3% [at 57.5 µM]
Fc1ccc(OCc2nc(C3CCNCC3)no2)cc1 27.2%
CCN1c2cc(C(=O)Nc3ccccc3OC)ccc2C(=O)N2CCCCCC21 (centres undefined) 13.5%
CC1CCN(CC2CCCCCN2C(=O)Nc2ccc3c(c2)OCCO3)CC1 (centres undefined) 15.7%
CC1CCN(CC2CCCN(C(=O)NC3CCCCC3)CC2)CC1 (centres undefined) -9.26%
O=C(c1ccncc1)N1CCCC(Cc2noc(-c3cnccn3)n2)C1 (centres undefined) -0.0591%
Cc1noc(C)c1S(=O)(=O)N1C[C@@H](Oc2cccnc2)C[C@H]1C(N)=O -3.24%
CC1(NC(=O)C2CC2)CN(c2ccc(OC(F)(F)F)cc2)C1 -2.27% [at 57.5 µM]
COc1ccccc1C(=O)N1CCC2(CC1)C(=NC1CCCCC1)NC(=O)N2c1cccnc1 4.34%
O=C(C1CCCC1)N1CC2(CCN(Cc3cccnc3)CC2)Cc2ccccc21 -4.68%
COc1cccc(C(=O)N2CCCN(CCn3nc4n(c3=O)CCCC4)CC2)c1 0.654%

Fetched one by one from above:
Activity % (negative = inhibition), inactive:
CN(C)[C@@H]1CN(C(=O)c2cc3ccccc3[nH]2)CC[C@@H]1CO 20.1%
CC(C)C1=NOC2(CCN(C(=O)c3ccccc3F)CC2)C1 -0.0545% [at 57.5 µM]
CC1=NOC2(CCN(Cc3ccncc3)CC2)C1 -1.02% [at 57.5 µM]
COc1ccc(C[C@H](NC(=O)[C@@H]2C[C@H](NC(=O)Nc3ccc(F)cc3F)CN2C(=O)CC(C)(C)C)C(N)=O)cc1 -3.76%
COc1ccc(F)c(-c2nc(CN(C)CC3(CO)CC3)c(C)o2)c1 15.7%
OCCc1cc(CC2(NCc3ccc(CO)o3)COC2)no1 -0.284% [at 57.5 µM]
